The list shows a part of the results, in another mix than the full data. Activity calls are given as the source filed them. Cut-off read from the data, not from the text of the source: active = inhibition mostly above about 28% (no sharp cut-off); inactive = mostly below about 22%.
Experiment: lowers stimulated NF-kB luciferase signal in 697 cells – cell-based, luminescence, single concentration, B-cell NF-kB inhibitor project, confirmation (AID 449746)
Conditions: 697 B-cell NF-kB luciferase, PMA/ionomycin, 16 h; at 4 µM; active compounds read high
With `CN[C@H]1C[C@H]2O[C@@](C)([C@H]1OC)n1c3ccccc3c3c4c(c5c6ccccc6n2c5c31)C(=O)NC4` the inhibition was active: 105%.
